Test results as given in paper PMC9172573, “Covalent labeling of a chromatin reader domain using proximity-reactive cyclic peptides†” (Chemical Science, 2022).
No constants are given. Whether binding was seen depends on the method and setting. Some results given as binding are weak or reduced against the parent protein; the word gives no strength. Tags and fused reporters may be left off the sequences shown.

T1: His6-MBP-PHD3 (PHD3 domain of histone demethylase KDM5A) (UniProt P29375)
T1 sequence: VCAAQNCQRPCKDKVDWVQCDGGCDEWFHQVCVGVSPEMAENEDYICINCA


Molecular target: T1, His6-MBP-PHD3 (PHD3 domain of histone demethylase KDM5A)
Experiment: fluorescence polarisation; competition: recombinant His6-MBP-PHD3 incubated with the 10mer H3K4me3 tracer (C-terminal fluorescent label), then varying concentrations of the competing peptide; Ki; both purified

| binding | Binder |
| --- | --- |
| binds | ARTKQT (monomethylated guanidino group of R2; trimethyllysine at 4) [H3K4me3 6mer peptide 10 (R2 guanidino group monomethylated)] |
| binds | ARTKQT (N-terminal methyl; trimethyllysine at 4) [N-terminally methylated H3K4me3 6mer peptide (3)] |
